These are yes or no findings as the source states them, for the method shown. Some results given as binding are weak or reduced against the parent protein; the word gives no strength.
Legend:
[1] = molecular target: T1, recombinant human bone morphogenetic protein 2 (human) (UniProt P12643); assay: quartz crystal microbalance (QCM); [Ca^2+]H/rhBMP-2 (50 ug/mL rhBMP-2 with 18.0 mM Ca^2+ in PBS) preadsorbed on the chip sensor, then 10 ug/mL receptor monitored for 100 min; 25.0 C; delta f at 25 MHz; both purified
T1 sequence: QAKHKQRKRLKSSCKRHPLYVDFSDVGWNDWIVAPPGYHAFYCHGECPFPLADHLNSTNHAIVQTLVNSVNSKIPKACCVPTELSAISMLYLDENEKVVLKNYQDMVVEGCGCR

[2] = molecular target: T1, recombinant human bone morphogenetic protein 2 (human); assay: quartz crystal microbalance (QCM); [Ca^2+]L/rhBMP-2 (50 ug/mL rhBMP-2 with 0.18 mM Ca^2+ in PBS) preadsorbed on the chip sensor, then 10 ug/mL receptor monitored for 100 min; 25.0 C; delta f at 25 MHz; both purified

B1: BMPR-IB (receptor, UniProt O00238 14-126)
chain: KKEDGESTAPTPRPKVLRCKCHHHCPEDSVNNICSTDGYCFTMIEEDDSGLPVVTSGCLGLEGSDFQCRDTPIPHQRRSIECCTERNECNKDLHPTLPPLKNRDFVDGPIHHR
- binding [1]: binds
- binding [2]: binds

Reference: paper PMC4515877
